The text below walks through data of paper doi:10.1101/284836.

Chains of the proteins cited; added tags and fusions are not shown.
UniProt P0A9K9: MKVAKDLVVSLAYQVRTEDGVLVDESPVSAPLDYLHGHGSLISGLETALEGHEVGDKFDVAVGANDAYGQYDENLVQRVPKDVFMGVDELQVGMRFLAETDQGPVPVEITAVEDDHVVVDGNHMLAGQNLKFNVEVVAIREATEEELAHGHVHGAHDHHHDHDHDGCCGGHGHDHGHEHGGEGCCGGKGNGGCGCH

These are yes or no findings as the source states them, for the method shown. Binding seen in cells or lysates may run through a third protein. Here binding means that the protein was enriched with, or labelled near, the bait; the list need not be complete. A no says only that the protein was not detected with the bait. Sequences can lack the tags named with a protein.

This experiment deals with T1, EcSxyHIS (histidine-tagged E. coli Sxy) (E. coli) (UniProt P75869).
T1 sequence: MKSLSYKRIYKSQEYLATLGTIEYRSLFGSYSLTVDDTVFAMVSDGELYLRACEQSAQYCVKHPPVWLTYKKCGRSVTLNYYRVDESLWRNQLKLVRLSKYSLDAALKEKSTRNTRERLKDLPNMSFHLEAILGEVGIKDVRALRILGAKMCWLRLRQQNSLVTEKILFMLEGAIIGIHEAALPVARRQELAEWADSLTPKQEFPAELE
Description: affinity purification with mass spectrometry.

For the substance SlyD (from UniProt P0A9K9 1-196), the binding entry is on record as “no binding”.
